PubChem BioAssay AID743448 | Peter MacCallum Cancer Centre, 2014

- Purpose: 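Find knock-downs giving vorinostat-specific cell death in several colon cancer lines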 (follow-up of hits)
- Cells: four human colon cancer cell lines: HCT116-VR (vorinostat-resistant HCT116 derivative), SW480, SW620 and LIM1215
- Reagent: siRNA pool against human genes, 40 nM siRNA pool
- Timing: drug added two days after transfection, read one day later
- Treatment: vorinostat 2.5 µM on one half of each plate, etoposide 5 µM on the other half
- Detection: 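Caspase 3/7 activity by luminescence and live-cell viability by fluorescence, each given as a ratio to mock-transfected wells and as a robust z-score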
- Reading the numbers: caspase ratio to mock: higher = more caspase activity than mock; viability ratio to mock: higher = more live cells than mock
- Rule for the call: 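Hit means caspase ratio to mock at least 1.6, or viability ratio to mock at most 0.75; wells with strong death in the absence of drug get no call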
- Calls: active = caspase or viability hit in this panel; inactive = no change, or unhealthy well
Shown is a random part of 106 reagents. 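Calls are per line and drug panel including etoposide, not vorinostat-specific; gene picks needed hits in two or more extra lines with vorinostat versus etoposide.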 Further read-outs or replicates are left out here. No sequences are given here.

The opening 3 entries, to show the layout:
| gene knocked down | cell line and drug panel | caspase ratio to mock | viability ratio to mock | call |
| --- | --- | --- | --- | --- |
| EIF1AX (eukaryotic translation initiation factor 1A X-linked) | LIM1215 cells with etoposide | 1.79 | 0.76 | active |
| EIF1AX (eukaryotic translation initiation factor 1A X-linked) | LIM1215 cells with vorinostat | 1.81 | 0.77 | active |
| EIF1AX (eukaryotic translation initiation factor 1A X-linked) | SW480 cells with etoposide | 1.01 | 0.61 | active |

The listing, from the start:
| gene knocked down | cell line and drug panel | caspase ratio to mock | viability ratio to mock | call |
| --- | --- | --- | --- | --- |
| EIF1AX (eukaryotic translation initiation factor 1A X-linked) | LIM1215 cells with etoposide | 1.79 | 0.76 | active |
| EIF1AX (eukaryotic translation initiation factor 1A X-linked) | LIM1215 cells with vorinostat | 1.81 | 0.77 | active |
| EIF1AX (eukaryotic translation initiation factor 1A X-linked) | SW480 cells with etoposide | 1.01 | 0.61 | active |
| EIF1AX (eukaryotic translation initiation factor 1A X-linked) | SW480 cells with vorinostat | 1.12 | 0.78 | inactive |
| EIF1AX (eukaryotic translation initiation factor 1A X-linked) | SW620 cells with etoposide | 0.88 | 0.75 | active |
| EIF1AX (eukaryotic translation initiation factor 1A X-linked) | SW620 cells with vorinostat | 1.17 | 0.91 | inactive |
| EIF1AX (eukaryotic translation initiation factor 1A X-linked) | vorinostat-resistant HCT116 cells with etoposide | 0.86 | 0.6 | active |
| EIF1AX (eukaryotic translation initiation factor 1A X-linked) | vorinostat-resistant HCT116 cells with vorinostat | 1.23 | 0.71 | active |
| BEGAIN (brain enriched guanylate kinase associated) | LIM1215 cells with etoposide | 1.43 | 0.97 | inactive |
| BEGAIN (brain enriched guanylate kinase associated) | LIM1215 cells with vorinostat | 2.06 | 0.88 | active |
| BEGAIN (brain enriched guanylate kinase associated) | SW480 cells with etoposide | 2.12 | 1.08 | active |
| BEGAIN (brain enriched guanylate kinase associated) | SW480 cells with vorinostat | 1.82 | 1.06 | active |
| BEGAIN (brain enriched guanylate kinase associated) | SW620 cells with etoposide | 1.16 | 0.95 | inactive |
| BEGAIN (brain enriched guanylate kinase associated) | SW620 cells with vorinostat | 1.53 | 1 | inactive |
| BEGAIN (brain enriched guanylate kinase associated) | vorinostat-resistant HCT116 cells with etoposide | 1.23 | 0.94 | inactive |
| BEGAIN (brain enriched guanylate kinase associated) | vorinostat-resistant HCT116 cells with vorinostat | 1.83 | 1.08 | active |
| NUP58 (nucleoporin 58) | LIM1215 cells with etoposide | 3.51 | 1.1 | active |
| NUP58 (nucleoporin 58) | LIM1215 cells with vorinostat | 3.67 | 0.94 | active |
| NUP58 (nucleoporin 58) | SW480 cells with etoposide | 1.26 | 0.76 | inactive |
| NUP58 (nucleoporin 58) | SW480 cells with vorinostat | 0.92 | 0.72 | active |
| NUP58 (nucleoporin 58) | SW620 cells with etoposide | 0.74 | 0.9 | inactive |
| NUP58 (nucleoporin 58) | SW620 cells with vorinostat | 1.04 | 0.84 | inactive |
| NUP58 (nucleoporin 58) | vorinostat-resistant HCT116 cells with etoposide | 1.92 | 0.84 | active |
| NUP58 (nucleoporin 58) | vorinostat-resistant HCT116 cells with vorinostat | 2.23 | 0.85 | active |
| RNF186 (ring finger protein 186) | LIM1215 cells with etoposide | 1.15 | 1.1 | inactive |
| RNF186 (ring finger protein 186) | LIM1215 cells with vorinostat | 0.99 | 1 | inactive |
| RNF186 (ring finger protein 186) | SW480 cells with etoposide | 0.63 | 1.11 | inactive |
| RNF186 (ring finger protein 186) | SW480 cells with vorinostat | 1 | 1.02 | inactive |
| RNF186 (ring finger protein 186) | SW620 cells with etoposide | 0.45 | 0.96 | inactive |
| RNF186 (ring finger protein 186) | SW620 cells with vorinostat | 0.56 | 0.82 | inactive |
| RNF186 (ring finger protein 186) | vorinostat-resistant HCT116 cells with etoposide | 1.09 | 1.01 | inactive |
| RNF186 (ring finger protein 186) | vorinostat-resistant HCT116 cells with vorinostat | 1.23 | 1.08 | inactive |
| EIF2B5 (eukaryotic translation initiation factor 2B subunit epsilon) | LIM1215 cells with etoposide | 1.96 | 0.74 | active |
| EIF2B5 (eukaryotic translation initiation factor 2B subunit epsilon) | LIM1215 cells with vorinostat | 2.12 | 0.8 | active |
| EIF2B5 (eukaryotic translation initiation factor 2B subunit epsilon) | SW480 cells with etoposide | 1.11 | 0.64 | active |
| EIF2B5 (eukaryotic translation initiation factor 2B subunit epsilon) | SW480 cells with vorinostat | 1.58 | 0.87 | inactive |
| EIF2B5 (eukaryotic translation initiation factor 2B subunit epsilon) | SW620 cells with etoposide | 1.07 | 0.77 | inactive |
| EIF2B5 (eukaryotic translation initiation factor 2B subunit epsilon) | SW620 cells with vorinostat | 1.09 | 0.86 | inactive |
| EIF2B5 (eukaryotic translation initiation factor 2B subunit epsilon) | vorinostat-resistant HCT116 cells with etoposide | 0.69 | 0.65 | active |
| EIF2B5 (eukaryotic translation initiation factor 2B subunit epsilon) | vorinostat-resistant HCT116 cells with vorinostat | 1.13 | 0.74 | active |
| C22orf15 (chromosome 22 open reading frame 15) | LIM1215 cells with etoposide | 1.84 | 1.02 | active |
| C22orf15 (chromosome 22 open reading frame 15) | LIM1215 cells with vorinostat | 2.93 | 0.88 | active |
| C22orf15 (chromosome 22 open reading frame 15) | SW480 cells with etoposide | 2.05 | 1.01 | active |
| C22orf15 (chromosome 22 open reading frame 15) | SW480 cells with vorinostat | 2.12 | 1 | active |
| C22orf15 (chromosome 22 open reading frame 15) | SW620 cells with etoposide | 1.09 | 0.94 | inactive |
| C22orf15 (chromosome 22 open reading frame 15) | SW620 cells with vorinostat | 1.86 | 0.98 | active |
| C22orf15 (chromosome 22 open reading frame 15) | vorinostat-resistant HCT116 cells with etoposide | 1.11 | 1 | inactive |
| C22orf15 (chromosome 22 open reading frame 15) | vorinostat-resistant HCT116 cells with vorinostat | 2.06 | 1 | active |
| KIR2DL1 | LIM1215 cells with etoposide | 1.36 | 1.09 | inactive |
| KIR2DL1 | LIM1215 cells with vorinostat | 1.52 | 1.02 | inactive |
| KIR2DL1 | SW480 cells with etoposide | 1.41 | 1.21 | inactive |
| KIR2DL1 | SW480 cells with vorinostat | 2.12 | 1.17 | active |
| KIR2DL1 | SW620 cells with etoposide | 0.92 | 1.14 | inactive |
| KIR2DL1 | SW620 cells with vorinostat | 1.34 | 1.1 | inactive |
| KIR2DL1 | vorinostat-resistant HCT116 cells with etoposide | 1.29 | 1.21 | inactive |
| KIR2DL1 | vorinostat-resistant HCT116 cells with vorinostat | 1.34 | 1.1 | inactive |
